Measurements reported in PubChem BioAssay AID1224830 (NIAID, 2016).
Aim: 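Genes whose knock-down alters the TNF-alpha reporter response to LPS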 (primary screen). System: human THP-1 monocytic leukaemia cells, TNF dual-luciferase reporter clone, PMA-differentiated to macrophage-like cells. Reagents: siRNA pool against human genes, 50 nM. Duration: LPS for 4 h, given about 3 days after siRNA transfection. Conditions: bacterial LPS (TLR4 ligand), 10 ng/ml. Measured: 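TNF firefly reporter luminescence divided by renilla, normalised to the plate median, then turned into a robust z-score for each replicate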. Reading the numbers: TNF reporter robust z-score: higher = stronger TNF reporter response to LPS. Active means: 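Each well counts as active if its z-score is over 2.8 or under -1.5; controls are left without a call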.
The whole screen tested about 18,000 reagents; below is a part drawn at random. About 2,900 of all reagents (16%) count as active. 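Calls are made per well; low scores hint the gene aids the LPS response, high scores that it dampens it.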 Entries without a mark were called inactive. Repeated entries: four replicate wells of each siRNA pool.

no.	gene	TNF reporter robust z-score
1	SNX14	-0.63
2	SNX14	0.93
3	SNX14	-0.64
4	SNX14	-0.79
5	METTL18	-0.18
6	METTL18	-0.39
7	METTL18	0.37
8	METTL18	-0.07
9	NOL4	2.33
10	NOL4	1.67
11	NOL4	0.81
12	NOL4	3.03 (active)
13	RTF2	1.05
14	RTF2	2.08
15	RTF2	1.4
16	RTF2	2.14
17	PTPRO	0.1
18	PTPRO	-0.18
19	PTPRO	1.29
20	PTPRO	-0.26
21	CLASP2	1.64
22	CLASP2	1.58
23	CLASP2	0.11
24	CLASP2	0.6
25	GALK2	0.69
26	GALK2	1.5
27	GALK2	2.64
28	GALK2	2.18

Active calls, among the entries above:
gene	TNF reporter robust z-score
NOL4	3.03 (active)

The list goes on.
no.	gene	TNF reporter robust z-score
29	ITIH1	-0.47
30	ITIH1	-0.43
31	ITIH1	-1.08
32	ITIH1	-0.53
33	TRIM71	3.32 (active)
34	TRIM71	-0.46
35	TRIM71	-0.05
36	TRIM71	-1.61 (active)
37	KCNK18	0.17
38	KCNK18	0.35
39	KCNK18	0.29
40	KCNK18	1.45
41	PNRC1	-1.33
42	PNRC1	-0.72
43	PNRC1	-1.64 (active)
44	PNRC1	-0.98
45	RNF148	-0.91
46	RNF148	-0.69
47	RNF148	-0.4
48	RNF148	0.4
